Some of the results follow. This data set is noisy: repeats of one test often differ as much as different tests do.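 A screen tested FDA-approved drugs combined with one-eighth-MIC colistin against a clinical mcr-1-positive, multidrug-resistant E. coli isolate, measuring OD600 at 24 h. Controls were untreated bacteria (growth) and broth alone (blank). An OD600 under 0.2 marked a combination as active.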
system: Escherichia coli 42 (mcr-1-positive clinical isolate); assay: OD600 after 24 h growth with compound plus colistin (absorbance units (OD600)); higher = more bacterial growth (less inhibition); conditions: first compound 25 µM; colistin concentration 0.5 ug/mL; incubation time 24 h; 37 °C

OD600, inactive:
O=C1CCC(N2C(=O)c3ccccc3C2=O)C(=O)N1 (centres undefined) [Thalidomide] + CCC(C)CCCC(=O)N[C@@H](CCN)C(=O)N[C@H](C(=O)N[C@@H](CCN)C(=O)N[C@H]1CCNC(=O)[C@H]([C@@H](C)O)NC(=O)[C@H](CCN)NC(=O)[C@H](CCN)NC(=O)[C@H](CC(C)C)NC(=O)[C@@H](CC(C)C)NC(=O)[C@H](CCN)NC1=O)[C@@H](C)O [colistin] 1.07
O=C1CN(/N=C/c2ccc([N+](=O)[O-])o2)C(=O)N1 [Nitrofurantoin] + CCC(C)CCCC(=O)N[C@@H](CCN)C(=O)N[C@H](C(=O)N[C@@H](CCN)C(=O)N[C@H]1CCNC(=O)[C@H]([C@@H](C)O)NC(=O)[C@H](CCN)NC(=O)[C@H](CCN)NC(=O)[C@H](CC(C)C)NC(=O)[C@@H](CC(C)C)NC(=O)[C@H](CCN)NC1=O)[C@@H](C)O [colistin] 0.939
S=P(N1CC1)(N1CC1)N1CC1 + CCC(C)CCCC(=O)N[C@@H](CCN)C(=O)N[C@H](C(=O)N[C@@H](CCN)C(=O)N[C@H]1CCNC(=O)[C@H]([C@@H](C)O)NC(=O)[C@H](CCN)NC(=O)[C@H](CCN)NC(=O)[C@H](CC(C)C)NC(=O)[C@@H](CC(C)C)NC(=O)[C@H](CCN)NC1=O)[C@@H](C)O [colistin] 1.21
COc1ccc2cc([C@H](C)C(=O)O)ccc2c1 [Naproxen] + CCC(C)CCCC(=O)N[C@@H](CCN)C(=O)N[C@H](C(=O)N[C@@H](CCN)C(=O)N[C@H]1CCNC(=O)[C@H]([C@@H](C)O)NC(=O)[C@H](CCN)NC(=O)[C@H](CCN)NC(=O)[C@H](CC(C)C)NC(=O)[C@@H](CC(C)C)NC(=O)[C@H](CCN)NC1=O)[C@@H](C)O [colistin] 0.918

Source: the supplement of paper PMC11546906
